Source: patent US20100092460A1
Results are given in words; binding and its absence hold for the method and conditions named. Some results given as binding are weak or reduced against the parent protein; the word gives no strength.

Amino acid sequences for entries named in this document (tags omitted). Residues count along the entry.
UniProt P69332: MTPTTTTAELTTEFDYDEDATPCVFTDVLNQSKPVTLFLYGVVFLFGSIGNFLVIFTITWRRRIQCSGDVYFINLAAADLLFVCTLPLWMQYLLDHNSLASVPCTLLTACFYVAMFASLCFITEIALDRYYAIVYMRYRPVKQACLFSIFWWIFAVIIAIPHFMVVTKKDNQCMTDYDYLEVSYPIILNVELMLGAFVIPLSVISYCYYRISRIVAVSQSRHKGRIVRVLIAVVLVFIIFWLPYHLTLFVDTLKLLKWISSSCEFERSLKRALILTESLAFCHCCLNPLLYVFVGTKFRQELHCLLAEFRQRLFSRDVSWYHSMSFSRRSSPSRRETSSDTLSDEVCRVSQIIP
UniProt P10147, residues 27-92: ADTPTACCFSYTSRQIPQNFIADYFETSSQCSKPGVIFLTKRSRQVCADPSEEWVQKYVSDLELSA
UniProt P13500, residues 24-99: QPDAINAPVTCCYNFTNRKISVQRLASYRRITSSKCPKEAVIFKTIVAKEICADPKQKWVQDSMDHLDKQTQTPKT

Key:
hCCR1 (human) [1] = target: T1, hCCR1 (human) (UniProt P32246); assay: unlabelled CCL3 (100 nM) used to displace 125I-CCL5 from CCR1 on HEK293T cells
T1 sequence (looked up): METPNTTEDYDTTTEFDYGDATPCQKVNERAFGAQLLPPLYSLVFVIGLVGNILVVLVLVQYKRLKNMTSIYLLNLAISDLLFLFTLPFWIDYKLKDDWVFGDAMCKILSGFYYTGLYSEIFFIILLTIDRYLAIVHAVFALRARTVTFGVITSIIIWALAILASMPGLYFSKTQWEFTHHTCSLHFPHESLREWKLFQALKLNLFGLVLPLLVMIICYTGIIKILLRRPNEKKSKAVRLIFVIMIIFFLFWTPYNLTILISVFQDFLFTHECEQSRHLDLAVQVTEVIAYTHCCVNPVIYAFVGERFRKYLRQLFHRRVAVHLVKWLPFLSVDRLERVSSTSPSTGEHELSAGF

hCCR1 (human) [2] = target: T1, hCCR1 (human); assay: competition of unlabeled CCL3 with 125I-CCL5 on HEK293T cells with hCCR1
HCMV-US28 (HCMV) = HCMV-US28 (HCMV) (UniProt P69332); assay: competition of unlabeled CCL2 with 125I-CCL2 on HEK293T cells with HCMV-US28

Substance	binding (hCCR1 (human) [1])	binding (hCCR1 (human) [2])	binding (HCMV-US28 (HCMV))
recombinant human CCL3/MIP1 alpha (from UniProt P10147 27-92) (ligand)	binds	binds	–
recombinant human CCL2/MCP1 (from UniProt P13500 24-99) (ligand)	–	–	binds
